Results are given in words; binding and its absence hold for the method and conditions named. In cells and extracts the contact can be indirect. Some binding calls cover weakened binding; strength is not graded here.
Target: p53 of U2OS cells (human) (UniProt P04637)
Experiment: co-immunoprecipitation with anti-NEDL1 antibody from cytoplasmic and nuclear fractions of Xpress-NEDL1-transfected U2OS cells with or without cisplatin, then Western blotting

Amino acid sequences for entries named in this document (tags omitted).
UniProt Q76N89: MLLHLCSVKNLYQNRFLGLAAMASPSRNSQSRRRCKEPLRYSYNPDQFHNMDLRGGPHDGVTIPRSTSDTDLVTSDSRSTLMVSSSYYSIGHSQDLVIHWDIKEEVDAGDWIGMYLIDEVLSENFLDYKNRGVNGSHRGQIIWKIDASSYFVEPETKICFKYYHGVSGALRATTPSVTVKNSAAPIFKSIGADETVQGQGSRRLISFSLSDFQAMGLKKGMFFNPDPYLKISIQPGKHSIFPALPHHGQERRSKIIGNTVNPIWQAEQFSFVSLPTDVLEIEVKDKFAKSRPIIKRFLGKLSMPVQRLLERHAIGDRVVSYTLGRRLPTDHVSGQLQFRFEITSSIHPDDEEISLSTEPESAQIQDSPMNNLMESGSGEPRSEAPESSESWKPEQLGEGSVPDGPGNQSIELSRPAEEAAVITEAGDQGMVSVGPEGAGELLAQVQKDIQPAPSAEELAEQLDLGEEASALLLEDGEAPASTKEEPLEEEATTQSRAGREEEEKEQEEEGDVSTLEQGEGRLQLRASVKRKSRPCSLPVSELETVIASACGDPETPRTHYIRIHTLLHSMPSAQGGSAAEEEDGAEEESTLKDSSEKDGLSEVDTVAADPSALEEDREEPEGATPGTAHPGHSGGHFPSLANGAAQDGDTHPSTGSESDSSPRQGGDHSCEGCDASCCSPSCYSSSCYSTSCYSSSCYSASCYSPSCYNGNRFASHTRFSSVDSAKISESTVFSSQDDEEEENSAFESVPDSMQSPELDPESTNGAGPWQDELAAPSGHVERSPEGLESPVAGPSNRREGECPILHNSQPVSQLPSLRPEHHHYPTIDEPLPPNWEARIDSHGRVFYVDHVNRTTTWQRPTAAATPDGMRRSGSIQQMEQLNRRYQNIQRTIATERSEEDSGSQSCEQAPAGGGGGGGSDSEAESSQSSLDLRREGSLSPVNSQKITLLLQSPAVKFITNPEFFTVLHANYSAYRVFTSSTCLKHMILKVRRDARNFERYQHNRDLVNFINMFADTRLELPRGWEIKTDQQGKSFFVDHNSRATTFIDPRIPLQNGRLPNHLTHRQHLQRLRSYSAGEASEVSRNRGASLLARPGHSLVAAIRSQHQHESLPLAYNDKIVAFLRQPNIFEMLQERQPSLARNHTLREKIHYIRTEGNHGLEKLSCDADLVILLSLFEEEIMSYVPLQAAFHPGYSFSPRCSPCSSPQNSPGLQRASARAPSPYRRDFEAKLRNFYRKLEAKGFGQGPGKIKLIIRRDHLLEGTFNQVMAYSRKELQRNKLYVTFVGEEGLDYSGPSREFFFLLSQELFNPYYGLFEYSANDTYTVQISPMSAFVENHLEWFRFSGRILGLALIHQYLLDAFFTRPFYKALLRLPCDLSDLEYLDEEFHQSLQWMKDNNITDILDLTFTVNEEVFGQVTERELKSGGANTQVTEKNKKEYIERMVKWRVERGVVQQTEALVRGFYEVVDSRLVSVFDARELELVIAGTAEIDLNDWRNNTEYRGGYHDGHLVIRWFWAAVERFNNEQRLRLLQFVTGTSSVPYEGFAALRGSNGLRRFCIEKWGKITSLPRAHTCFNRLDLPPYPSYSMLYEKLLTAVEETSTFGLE

Question: How did the binding turn out when “Xpress-tagged NEDL1 (from UniProt Q76N89 1-1606) (enzyme)” was run?
Answer: The binding was “binds”.

From US20100279312A1
